At least one compound was matched to its structure with a doubt left.
System: phosphorylation of Girdin
Assay: EGF-induced phosphorylation of endogenous Girdin in COS7 cells (immunoprecipitation, Western blot with anti-P-Girdin antibody)
Format: cell-based
Conditions: EGF 50 ng/ml 15 min
Procedure: Immunoprecipitates with anti-Girdin antibody were subjected to Western blot analyses with anti-P-Girdin and anti-Girdin antibodies. Activation of Akt was monitored by Western blot analyses with anti-phospho Akt antibody.
COS7 cells were transfected with either control or Akt siRNAs, and incubated for 48 hrs. Cells were then stimulated with EGF for 30 min and the phosphorylation of Girdin was analyzed as described in FIG. 2e.
Next, whether the anti-P-Girdin Ab can detect the endogenous Girdin phosphorylated in response to external stimuli that physiologically activate endogenous Akt was given consideration to. […] Furthermore, the phosphorylation of Girdin was inhibited when cells were treated with the PI3K inhibitors LY294002 and Wortmannin, but not with the mitogen-activated protein kinase kinase 1 (MEK1) inhibitor PD98059. It has therefore been concluded that the phosphorylation of Girdin is induced by EGF in a PI3K-dependent manner. […] Moreover, Girdin phosphorylation was undetectable in the cells transfected with Akt small interfering RNA (Akt siRNA). These findings confirmed that Akt activation is necessary for Girdin phosphorylation.

| SMILES | phosphorylation of Girdin (Wortmannin 30 nM) | phosphorylation of Girdin (LY294002 10 μM) |
| --- | --- | --- |
| COC[C@H]1OC(=O)c2coc3c2[C@@]1(C)C1=C(C3=O)[C@@H]2CCC(=O)[C@@]2(C)C[C@H]1OC(C)=O [Wortmannin] | inhibited | – |
| O=c1cc(N2CCOCC2)oc2c(-c3ccccc3)cccc12 [LY294002] | – | inhibited |
